Measured values: publication PMC10680327
Results are given in words; binding and its absence hold for the method and conditions named. In cells and extracts the contact can be indirect. Some binding calls cover weakened binding; strength is not graded here.

The chains behind the UniProt entries cited, without tags or fusion partners.
UniProt Q03164: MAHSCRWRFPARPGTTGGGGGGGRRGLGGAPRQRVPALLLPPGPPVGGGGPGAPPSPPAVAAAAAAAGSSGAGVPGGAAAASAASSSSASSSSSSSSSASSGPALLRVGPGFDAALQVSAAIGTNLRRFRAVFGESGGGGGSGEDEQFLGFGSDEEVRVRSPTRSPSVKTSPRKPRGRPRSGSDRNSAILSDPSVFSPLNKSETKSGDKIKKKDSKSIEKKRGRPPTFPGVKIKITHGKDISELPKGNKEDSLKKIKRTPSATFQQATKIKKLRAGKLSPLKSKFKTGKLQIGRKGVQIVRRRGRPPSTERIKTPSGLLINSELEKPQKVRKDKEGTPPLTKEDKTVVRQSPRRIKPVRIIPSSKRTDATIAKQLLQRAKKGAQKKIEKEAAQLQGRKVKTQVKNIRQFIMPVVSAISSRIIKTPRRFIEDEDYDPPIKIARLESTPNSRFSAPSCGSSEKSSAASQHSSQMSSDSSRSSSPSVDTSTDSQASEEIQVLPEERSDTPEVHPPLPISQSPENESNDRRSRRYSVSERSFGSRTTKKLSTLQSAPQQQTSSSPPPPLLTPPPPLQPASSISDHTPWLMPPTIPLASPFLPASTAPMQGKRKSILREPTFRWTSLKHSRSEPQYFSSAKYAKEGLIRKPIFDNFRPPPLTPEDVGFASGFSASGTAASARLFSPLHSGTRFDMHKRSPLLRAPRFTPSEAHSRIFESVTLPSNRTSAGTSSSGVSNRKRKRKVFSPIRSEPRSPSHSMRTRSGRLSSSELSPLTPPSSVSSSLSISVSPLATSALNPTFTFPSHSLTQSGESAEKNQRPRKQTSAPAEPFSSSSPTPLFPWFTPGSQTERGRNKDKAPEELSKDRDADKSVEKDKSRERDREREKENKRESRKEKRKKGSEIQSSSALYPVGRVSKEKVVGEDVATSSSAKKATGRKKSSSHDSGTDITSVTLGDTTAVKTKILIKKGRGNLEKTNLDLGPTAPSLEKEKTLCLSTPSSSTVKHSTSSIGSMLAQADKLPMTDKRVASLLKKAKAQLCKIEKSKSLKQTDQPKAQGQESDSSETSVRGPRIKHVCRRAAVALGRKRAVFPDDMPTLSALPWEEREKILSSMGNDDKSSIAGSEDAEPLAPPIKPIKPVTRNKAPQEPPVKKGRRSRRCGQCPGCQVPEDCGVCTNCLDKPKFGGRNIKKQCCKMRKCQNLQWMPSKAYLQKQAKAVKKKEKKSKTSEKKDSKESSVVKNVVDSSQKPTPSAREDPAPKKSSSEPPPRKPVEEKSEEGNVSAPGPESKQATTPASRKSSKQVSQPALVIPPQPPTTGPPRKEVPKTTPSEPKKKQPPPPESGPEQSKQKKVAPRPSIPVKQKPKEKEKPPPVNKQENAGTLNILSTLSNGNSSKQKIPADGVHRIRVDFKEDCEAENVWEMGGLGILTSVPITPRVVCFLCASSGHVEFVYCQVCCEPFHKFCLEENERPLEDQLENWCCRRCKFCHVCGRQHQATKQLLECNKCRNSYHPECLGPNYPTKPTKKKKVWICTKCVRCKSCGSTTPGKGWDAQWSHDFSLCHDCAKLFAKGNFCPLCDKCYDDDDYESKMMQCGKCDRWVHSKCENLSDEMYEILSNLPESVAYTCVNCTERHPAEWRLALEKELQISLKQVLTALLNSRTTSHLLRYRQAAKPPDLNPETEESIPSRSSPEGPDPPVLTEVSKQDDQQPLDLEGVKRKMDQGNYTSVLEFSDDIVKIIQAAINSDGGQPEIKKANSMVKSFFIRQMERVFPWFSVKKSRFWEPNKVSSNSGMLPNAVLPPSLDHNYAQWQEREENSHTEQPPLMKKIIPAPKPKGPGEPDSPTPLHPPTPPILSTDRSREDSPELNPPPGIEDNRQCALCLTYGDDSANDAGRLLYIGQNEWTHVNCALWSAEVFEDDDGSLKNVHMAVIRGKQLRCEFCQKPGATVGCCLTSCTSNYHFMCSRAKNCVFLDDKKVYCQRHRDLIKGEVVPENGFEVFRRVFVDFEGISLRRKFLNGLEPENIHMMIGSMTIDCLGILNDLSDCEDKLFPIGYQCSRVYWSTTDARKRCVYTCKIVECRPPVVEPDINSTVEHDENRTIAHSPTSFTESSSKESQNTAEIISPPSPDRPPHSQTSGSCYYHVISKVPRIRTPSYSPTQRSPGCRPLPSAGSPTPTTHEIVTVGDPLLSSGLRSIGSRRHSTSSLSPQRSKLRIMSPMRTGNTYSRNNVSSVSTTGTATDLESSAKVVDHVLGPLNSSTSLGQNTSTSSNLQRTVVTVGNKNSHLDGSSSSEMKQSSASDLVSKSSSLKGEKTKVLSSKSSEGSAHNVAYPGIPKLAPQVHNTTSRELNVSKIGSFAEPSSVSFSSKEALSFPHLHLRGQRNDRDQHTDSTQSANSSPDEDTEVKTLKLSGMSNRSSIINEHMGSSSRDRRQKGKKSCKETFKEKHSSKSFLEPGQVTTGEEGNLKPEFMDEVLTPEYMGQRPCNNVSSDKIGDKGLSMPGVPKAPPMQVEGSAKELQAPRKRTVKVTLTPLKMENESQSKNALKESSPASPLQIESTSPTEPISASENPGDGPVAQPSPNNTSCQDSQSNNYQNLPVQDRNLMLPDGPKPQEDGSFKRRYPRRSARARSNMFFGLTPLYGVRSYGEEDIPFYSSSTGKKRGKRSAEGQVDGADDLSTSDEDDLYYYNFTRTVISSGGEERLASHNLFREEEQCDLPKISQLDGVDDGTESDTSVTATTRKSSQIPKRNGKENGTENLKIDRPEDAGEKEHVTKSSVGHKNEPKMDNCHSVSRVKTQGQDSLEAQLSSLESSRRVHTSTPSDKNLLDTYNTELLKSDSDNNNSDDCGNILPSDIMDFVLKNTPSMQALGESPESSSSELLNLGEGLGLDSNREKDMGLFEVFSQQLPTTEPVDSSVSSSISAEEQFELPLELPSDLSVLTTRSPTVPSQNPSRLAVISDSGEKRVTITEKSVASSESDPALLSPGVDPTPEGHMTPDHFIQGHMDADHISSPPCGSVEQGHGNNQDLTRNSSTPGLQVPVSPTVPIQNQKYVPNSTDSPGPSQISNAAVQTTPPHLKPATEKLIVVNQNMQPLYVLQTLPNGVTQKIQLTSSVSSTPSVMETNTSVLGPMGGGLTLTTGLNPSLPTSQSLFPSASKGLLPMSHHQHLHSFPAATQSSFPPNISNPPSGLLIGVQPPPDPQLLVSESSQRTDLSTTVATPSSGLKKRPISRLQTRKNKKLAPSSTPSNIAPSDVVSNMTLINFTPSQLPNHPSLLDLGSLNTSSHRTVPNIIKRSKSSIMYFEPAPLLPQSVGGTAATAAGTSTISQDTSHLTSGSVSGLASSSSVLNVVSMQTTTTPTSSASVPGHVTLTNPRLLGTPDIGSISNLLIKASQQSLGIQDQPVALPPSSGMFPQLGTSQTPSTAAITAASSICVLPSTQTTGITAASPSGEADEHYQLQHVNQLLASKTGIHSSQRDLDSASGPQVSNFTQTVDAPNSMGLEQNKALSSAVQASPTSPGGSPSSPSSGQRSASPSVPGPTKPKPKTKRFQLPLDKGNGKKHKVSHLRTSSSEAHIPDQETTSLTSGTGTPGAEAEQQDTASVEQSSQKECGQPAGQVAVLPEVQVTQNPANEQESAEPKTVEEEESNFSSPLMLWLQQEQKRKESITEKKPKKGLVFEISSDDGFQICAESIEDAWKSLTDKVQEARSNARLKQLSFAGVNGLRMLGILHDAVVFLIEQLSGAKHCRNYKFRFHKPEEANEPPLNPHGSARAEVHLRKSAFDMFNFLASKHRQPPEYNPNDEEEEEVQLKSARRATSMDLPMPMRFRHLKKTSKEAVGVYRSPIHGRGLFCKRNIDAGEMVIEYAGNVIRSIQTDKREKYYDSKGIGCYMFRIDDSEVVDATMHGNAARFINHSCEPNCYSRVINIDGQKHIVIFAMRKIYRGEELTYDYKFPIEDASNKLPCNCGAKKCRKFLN
UniProt P05412: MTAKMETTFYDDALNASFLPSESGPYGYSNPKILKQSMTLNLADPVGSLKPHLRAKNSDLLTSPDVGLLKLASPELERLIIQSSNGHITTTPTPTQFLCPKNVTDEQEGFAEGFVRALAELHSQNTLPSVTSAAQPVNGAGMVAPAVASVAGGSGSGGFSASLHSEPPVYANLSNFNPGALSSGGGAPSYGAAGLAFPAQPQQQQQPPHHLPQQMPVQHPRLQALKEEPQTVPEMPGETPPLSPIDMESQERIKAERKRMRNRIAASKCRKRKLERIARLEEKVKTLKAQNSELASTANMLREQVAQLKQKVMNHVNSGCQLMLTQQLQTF

Target: Histone methyltransferase MLL1/KMT2A (human (endogenous in HCT116)) (UniProt Q03164)
Experiment: co-IP; HCT116 cells lysed in NP40 lysis buffer (50 mM Tris pH 7.4, 150 mM NaCl, 0.5% NP40); supernatant incubated with protein G beads and anti-MLL1 or anti-JUN antibody at 4 °C for 4 h; three washes with lysis buffer; Western blot of MLL1 or JUN

## Transcription factor AP-1/JUN (from UniProt P05412 1-331)
  binding: binds
